From paper PMC10820798

By UniProt entry, the sequences of proteins in these tests, tags left out.
UniProt Q8TCU4: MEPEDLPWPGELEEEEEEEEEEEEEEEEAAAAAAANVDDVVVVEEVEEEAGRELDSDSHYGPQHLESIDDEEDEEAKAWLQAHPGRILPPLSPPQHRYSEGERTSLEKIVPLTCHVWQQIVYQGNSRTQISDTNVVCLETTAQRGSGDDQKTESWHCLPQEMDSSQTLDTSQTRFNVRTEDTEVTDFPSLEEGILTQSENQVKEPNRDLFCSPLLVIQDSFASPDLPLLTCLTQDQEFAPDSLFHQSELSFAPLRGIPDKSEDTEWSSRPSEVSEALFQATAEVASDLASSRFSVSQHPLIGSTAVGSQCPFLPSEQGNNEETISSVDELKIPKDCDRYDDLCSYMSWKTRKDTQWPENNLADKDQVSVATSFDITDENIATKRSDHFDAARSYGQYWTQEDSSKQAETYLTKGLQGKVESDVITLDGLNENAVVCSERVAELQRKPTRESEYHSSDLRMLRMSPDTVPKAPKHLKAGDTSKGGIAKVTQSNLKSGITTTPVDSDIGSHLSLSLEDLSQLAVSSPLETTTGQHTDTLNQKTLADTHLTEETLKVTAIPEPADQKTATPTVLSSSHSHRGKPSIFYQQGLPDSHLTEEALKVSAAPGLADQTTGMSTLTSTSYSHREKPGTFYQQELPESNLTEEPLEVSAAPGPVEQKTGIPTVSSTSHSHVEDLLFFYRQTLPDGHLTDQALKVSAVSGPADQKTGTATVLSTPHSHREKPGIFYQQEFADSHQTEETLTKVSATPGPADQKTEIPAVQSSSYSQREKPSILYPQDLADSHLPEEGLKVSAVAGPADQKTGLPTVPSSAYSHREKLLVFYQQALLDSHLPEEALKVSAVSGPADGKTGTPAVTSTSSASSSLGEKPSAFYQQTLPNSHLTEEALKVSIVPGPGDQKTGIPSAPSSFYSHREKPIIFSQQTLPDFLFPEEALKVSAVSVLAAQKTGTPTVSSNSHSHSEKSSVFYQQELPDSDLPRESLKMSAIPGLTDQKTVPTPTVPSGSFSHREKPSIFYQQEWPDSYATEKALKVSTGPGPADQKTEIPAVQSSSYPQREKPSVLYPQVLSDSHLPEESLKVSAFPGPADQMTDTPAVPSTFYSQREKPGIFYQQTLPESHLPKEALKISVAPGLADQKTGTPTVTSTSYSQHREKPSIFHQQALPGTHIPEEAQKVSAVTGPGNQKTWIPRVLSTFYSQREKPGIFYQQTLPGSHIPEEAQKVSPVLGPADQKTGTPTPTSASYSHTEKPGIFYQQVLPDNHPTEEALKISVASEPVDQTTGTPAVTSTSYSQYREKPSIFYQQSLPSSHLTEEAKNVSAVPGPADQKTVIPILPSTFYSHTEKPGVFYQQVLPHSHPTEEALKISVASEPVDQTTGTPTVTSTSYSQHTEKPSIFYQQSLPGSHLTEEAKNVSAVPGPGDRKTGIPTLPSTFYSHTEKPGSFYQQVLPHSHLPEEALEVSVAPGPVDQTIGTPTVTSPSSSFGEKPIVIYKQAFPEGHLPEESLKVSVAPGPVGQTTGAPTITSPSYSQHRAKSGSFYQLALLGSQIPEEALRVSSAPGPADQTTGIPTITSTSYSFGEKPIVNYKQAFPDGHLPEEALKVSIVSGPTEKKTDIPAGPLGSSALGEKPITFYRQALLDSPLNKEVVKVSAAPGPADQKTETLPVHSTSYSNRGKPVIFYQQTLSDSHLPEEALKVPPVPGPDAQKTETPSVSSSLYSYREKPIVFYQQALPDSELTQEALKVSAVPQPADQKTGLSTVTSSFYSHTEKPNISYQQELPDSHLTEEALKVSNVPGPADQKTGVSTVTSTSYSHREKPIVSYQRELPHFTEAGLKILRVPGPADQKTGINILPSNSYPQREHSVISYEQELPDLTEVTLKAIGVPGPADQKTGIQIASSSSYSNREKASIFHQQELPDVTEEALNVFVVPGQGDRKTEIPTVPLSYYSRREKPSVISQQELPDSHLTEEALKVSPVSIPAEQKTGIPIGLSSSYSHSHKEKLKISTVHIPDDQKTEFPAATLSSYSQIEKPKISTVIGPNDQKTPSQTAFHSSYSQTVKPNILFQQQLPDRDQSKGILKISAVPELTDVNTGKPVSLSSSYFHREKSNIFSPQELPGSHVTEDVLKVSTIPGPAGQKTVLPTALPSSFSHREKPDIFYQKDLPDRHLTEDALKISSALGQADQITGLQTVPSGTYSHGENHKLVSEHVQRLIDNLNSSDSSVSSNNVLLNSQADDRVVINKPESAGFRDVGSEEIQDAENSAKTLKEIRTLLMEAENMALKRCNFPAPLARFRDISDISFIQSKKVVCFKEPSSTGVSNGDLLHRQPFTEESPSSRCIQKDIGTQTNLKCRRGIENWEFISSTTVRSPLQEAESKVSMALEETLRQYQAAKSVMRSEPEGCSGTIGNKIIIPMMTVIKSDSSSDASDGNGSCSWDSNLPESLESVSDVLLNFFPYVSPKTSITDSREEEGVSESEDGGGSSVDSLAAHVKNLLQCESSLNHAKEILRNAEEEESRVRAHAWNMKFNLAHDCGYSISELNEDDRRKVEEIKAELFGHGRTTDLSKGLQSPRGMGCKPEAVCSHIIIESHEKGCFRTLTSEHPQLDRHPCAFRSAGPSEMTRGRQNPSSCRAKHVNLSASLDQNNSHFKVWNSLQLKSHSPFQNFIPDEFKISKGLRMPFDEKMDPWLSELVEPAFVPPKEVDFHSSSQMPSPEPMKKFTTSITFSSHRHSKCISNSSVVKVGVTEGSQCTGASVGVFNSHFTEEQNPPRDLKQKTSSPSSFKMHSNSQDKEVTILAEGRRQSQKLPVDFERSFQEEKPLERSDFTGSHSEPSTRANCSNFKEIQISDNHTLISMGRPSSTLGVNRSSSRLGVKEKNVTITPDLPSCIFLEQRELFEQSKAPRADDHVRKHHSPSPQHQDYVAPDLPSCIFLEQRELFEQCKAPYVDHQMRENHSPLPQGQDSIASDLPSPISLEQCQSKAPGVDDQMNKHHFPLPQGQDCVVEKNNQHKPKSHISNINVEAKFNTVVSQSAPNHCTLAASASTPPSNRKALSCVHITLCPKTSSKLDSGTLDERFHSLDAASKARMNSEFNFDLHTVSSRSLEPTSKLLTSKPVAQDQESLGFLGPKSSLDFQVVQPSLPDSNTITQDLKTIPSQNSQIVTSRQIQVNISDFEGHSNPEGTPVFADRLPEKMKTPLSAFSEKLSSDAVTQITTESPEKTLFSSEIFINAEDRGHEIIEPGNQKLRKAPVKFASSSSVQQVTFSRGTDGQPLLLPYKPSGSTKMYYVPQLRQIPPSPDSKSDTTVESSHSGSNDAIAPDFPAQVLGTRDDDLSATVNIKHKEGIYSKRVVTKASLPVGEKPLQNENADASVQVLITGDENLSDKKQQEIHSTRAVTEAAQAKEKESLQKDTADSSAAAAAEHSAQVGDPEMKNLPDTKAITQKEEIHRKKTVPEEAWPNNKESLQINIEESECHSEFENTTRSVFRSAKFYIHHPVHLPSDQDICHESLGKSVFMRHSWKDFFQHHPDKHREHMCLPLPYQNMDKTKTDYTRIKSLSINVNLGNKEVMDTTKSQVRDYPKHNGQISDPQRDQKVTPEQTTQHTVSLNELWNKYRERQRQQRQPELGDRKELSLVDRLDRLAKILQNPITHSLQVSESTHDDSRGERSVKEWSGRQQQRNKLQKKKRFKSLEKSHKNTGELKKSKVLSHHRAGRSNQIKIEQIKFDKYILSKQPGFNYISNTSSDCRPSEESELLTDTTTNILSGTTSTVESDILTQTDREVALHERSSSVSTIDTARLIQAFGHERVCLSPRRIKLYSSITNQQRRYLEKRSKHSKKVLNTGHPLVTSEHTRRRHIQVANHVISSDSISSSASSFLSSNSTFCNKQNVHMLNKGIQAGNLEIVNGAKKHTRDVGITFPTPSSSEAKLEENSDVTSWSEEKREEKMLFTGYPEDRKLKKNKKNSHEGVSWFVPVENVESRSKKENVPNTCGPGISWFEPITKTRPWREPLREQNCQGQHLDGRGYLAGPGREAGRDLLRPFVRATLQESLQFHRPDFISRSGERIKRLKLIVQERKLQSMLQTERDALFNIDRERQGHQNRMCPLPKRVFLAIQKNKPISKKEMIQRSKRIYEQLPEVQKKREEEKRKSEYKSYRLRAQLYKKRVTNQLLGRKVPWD

Key:
[1] = target: T1, N-terminal Strep/FLAG-tagged CEP70 full-length (NSF-CEP70) (human) (UniProt Q8NHQ1); test: affinity purification with mass spectrometry; FLAG agarose on lysates (0.5% NP40) of HEK293T transfected with NSF-CEP70 full-length, CC1-2 or TPR-CT; 1 h at 4 °C; on-bead digest; NSF-RAF1 as control; six replicates; label-free quantification, Tier 1/Tier 2 statistics
T1 sequence: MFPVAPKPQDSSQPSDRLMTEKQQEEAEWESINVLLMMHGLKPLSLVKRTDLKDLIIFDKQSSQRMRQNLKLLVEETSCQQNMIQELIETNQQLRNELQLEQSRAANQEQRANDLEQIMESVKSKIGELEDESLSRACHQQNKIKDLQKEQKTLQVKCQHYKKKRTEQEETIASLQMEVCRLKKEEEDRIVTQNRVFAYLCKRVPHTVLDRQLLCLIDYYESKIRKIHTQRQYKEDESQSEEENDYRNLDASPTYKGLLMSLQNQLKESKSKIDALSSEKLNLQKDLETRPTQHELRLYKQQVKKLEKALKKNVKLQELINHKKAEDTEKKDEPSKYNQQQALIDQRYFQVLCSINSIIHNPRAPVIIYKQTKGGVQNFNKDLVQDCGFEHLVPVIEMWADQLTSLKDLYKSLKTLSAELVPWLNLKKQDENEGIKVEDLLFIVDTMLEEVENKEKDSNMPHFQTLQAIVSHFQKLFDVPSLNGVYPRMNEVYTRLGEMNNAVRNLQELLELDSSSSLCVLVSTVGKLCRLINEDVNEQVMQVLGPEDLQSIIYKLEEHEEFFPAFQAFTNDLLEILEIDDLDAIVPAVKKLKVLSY

[2] = target: T2, NSF-CEP70 CC1-2 fragment (75-326 aa) (human) (UniProt Q8NHQ1); test: as above
T2 sequence: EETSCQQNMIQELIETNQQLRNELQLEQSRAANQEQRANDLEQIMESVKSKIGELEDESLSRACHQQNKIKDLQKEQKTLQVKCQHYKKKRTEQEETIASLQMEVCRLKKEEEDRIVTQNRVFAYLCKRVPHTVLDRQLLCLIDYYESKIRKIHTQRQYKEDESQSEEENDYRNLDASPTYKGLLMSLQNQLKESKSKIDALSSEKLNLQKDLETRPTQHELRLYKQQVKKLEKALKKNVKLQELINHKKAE

[3] = target: T3, NSF-CEP70 TPR-CT fragment (327-597 aa) (human) (UniProt Q8NHQ1); test: as above
T3 sequence: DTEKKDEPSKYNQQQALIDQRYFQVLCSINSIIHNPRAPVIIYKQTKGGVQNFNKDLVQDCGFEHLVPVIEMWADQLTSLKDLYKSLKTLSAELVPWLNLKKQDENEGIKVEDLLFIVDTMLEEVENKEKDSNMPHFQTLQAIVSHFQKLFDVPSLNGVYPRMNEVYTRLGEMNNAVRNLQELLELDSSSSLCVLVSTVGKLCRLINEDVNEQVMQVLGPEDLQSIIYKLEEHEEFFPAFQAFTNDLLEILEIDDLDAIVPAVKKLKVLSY

[4] = target: endogenously sfGFP-tagged ALMS1 (ALMS1-sfGFP) (human (endogenous in HEK293T)) (UniProt Q8TCU4); test: affinity purification with mass spectrometry; GFP-Trap agarose on lysates (0.5% NP40) of three HEK293T single clones with endogenous ALMS1-sfGFP, starved overnight; 1 h at 4 °C; untagged HEK293T as control; six replicates; label-free quantification, Tier 1/Tier 2 statistics

Q: With “ALMS1, endogenous (untagged) (from UniProt Q8TCU4 1-4168)” as the molecule, how does the binding [1] read?
A: Its binding is “binds”.

Q: And the binding [2]?
A: Its binding is “no binding”.

Q: What about the binding [3] of the same molecule?
A: The binding was “binds”.

B1: centrosomal protein 70 kDa (CEP70), endogenous (protein, UniProt Q8NHQ1 1-597)
chain: MFPVAPKPQDSSQPSDRLMTEKQQEEAEWESINVLLMMHGLKPLSLVKRTDLKDLIIFDKQSSQRMRQNLKLLVEETSCQQNMIQELIETNQQLRNELQLEQSRAANQEQRANDLEQIMESVKSKIGELEDESLSRACHQQNKIKDLQKEQKTLQVKCQHYKKKRTEQEETIASLQMEVCRLKKEEEDRIVTQNRVFAYLCKRVPHTVLDRQLLCLIDYYESKIRKIHTQRQYKEDESQSEEENDYRNLDASPTYKGLLMSLQNQLKESKSKIDALSSEKLNLQKDLETRPTQHELRLYKQQVKKLEKALKKNVKLQELINHKKAEDTEKKDEPSKYNQQQALIDQRYFQVLCSINSIIHNPRAPVIIYKQTKGGVQNFNKDLVQDCGFEHLVPVIEMWADQLTSLKDLYKSLKTLSAELVPWLNLKKQDENEGIKVEDLLFIVDTMLEEVENKEKDSNMPHFQTLQAIVSHFQKLFDVPSLNGVYPRMNEVYTRLGEMNNAVRNLQELLELDSSSSLCVLVSTVGKLCRLINEDVNEQVMQVLGPEDLQSIIYKLEEHEEFFPAFQAFTNDLLEILEIDDLDAIVPAVKKLKVLSY
Q: B1 was tested. Which binding [4] did it give?
A: Its binding is “binds”.

B2: HDAC10 (protein, UniProt Q969S8 1-669)
chain: MGTALVYHEDMTATRLLWDDPECEIERPERLTAALDRLRQRGLEQRCLRLSAREASEEELGLVHSPEYVSLVRETQVLGKEELQALSGQFDAIYFHPSTFHCARLAAGAGLQLVDAVLTGAVQNGLALVRPPGHHGQRAAANGFCVFNNVAIAAAHAKQKHGLHRILVVDWDVHHGQGIQYLFEDDPSVLYFSWHRYEHGRFWPFLRESDADAVGRGQGLGFTVNLPWNQVGMGNADYVAAFLHLLLPLAFEFDPELVLVSAGFDSAIGDPEGQMQATPECFAHLTQLLQVLAGGRVCAVLEGGYHLESLAESVCMTVQTLLGDPAPPLSGPMAPCQSALESIQSARAAQAPHWKSLQQQDVTAVPMSPSSHSPEGRPPPLLPGGPVCKAAASAPSSLLDQPCLCPAPSVRTAVALTTPDITLVLPPDVIQQEASALREETEAWARPHESLAREEALTALGKLLYLLDGMLDGQVNSGIAATPASAAAATLDVAVRRGLSHGAQRLLCVALGQLDRPPDLAHDGRSLWLNIRGKEAAALSMFHVSTPLPVMTGGFLSCILGLVLPLAYGFQPDLVLVALGPGHGLQGPHAALLAAMLRGLAGGRVLALLEENSTPQLAGILARVLNGEAPPSLGPSSVASPEDVQALMYLRGQLEPQWKMLQCHPHLVA
Q: B2 was tested. Which binding [1] did it give?
A: Its binding is “no binding”.

Q: What about the binding [4] of the same molecule?
A: Its binding is “binds”.

B3: TCEB3 (protein, UniProt Q14241 1-772)
chain: MAAESALQVVEKLQARLAANPDPKKLLKYLKKLSTLPITVDILAETGVGKTVNSLRKHEHVGSFARDLVAQWKKLVPVERNAEPDEQDFEKSNSRKRPRDALQKEEEMEGDYQETWKATGSRSYSPDHRQKKHRKLSELERPHKVSHGHERRDERKRCHRMSPTYSSDPESSDYGHVQSPPSCTSPHQMYVDHYRSLEEDQEPIVSHQKPGKGHSNAFQDRLGASQERHLGEPHGKGVVSQNKEHKSSHKDKRPVDAKSDEKASVVSREKSHKALSKEENRRPPSGDNAREKPPSSGVKKEKDREGSSLKKKCLPPSEAASDNHLKKPKHRDPEKAKLDKSKQGLDSFDTGKGAGDLLPKVKEKGSNNLKTPEGKVKTNLDRKSLGSLPKVEETDMEDEFEQPTMSFESYLSYDQPRKKKKKIVKTSATALGDKGLKKNDSKSTGKNLDSVQKLPKVNKTKSEKPAGADLAKLRKVPDVLPVLPDLPLPAIQANYRPLPSLELISSFQPKRKAFSSPQEEEEAGFTGRRMNSKMQVYSGSKCAYLPKMMTLHQQCIRVLKNNIDSIFEVGGVPYSVLEPVLERCTPDQLYRIEEYNHVLIEETDQLWKVHCHRDFKEERPEEYESWREMYLRLQDAREQRLRVLTKNIQFAHANKPKGRQAKMAFVNSVAKPPRDVRRRQEKFGTGGAAVPEKIKIKPAPYPMGSSHASASSISFNPSPEEPAYDGPSTSSAHLAPVVSSTVSYDPRKPTVKKIAPMMAKTIKAFKNRFSRR
Q: How did the binding [1] turn out when B3 was run?
A: Its binding is “binds”.

Q: And the binding [4]?
A: The binding was “binds”.

B4: ZC3H18 (protein, UniProt Q86VM9 1-953)
chain: MDVAESPERDPHSPEDEEQPQGLSDDDILRDSGSDQDLDGAGVRASDLEDEESAARGPSQEEEDNHSDEEDRASEPKSQDQDSEVNELSRGPTSSPCEEEGDEGEEDRTSDLRDEASSVTRELDEHELDYDEEVPEEPAPAVQEDEAEKAGAEDDEEKGEGTPREEGKAGVQSVGEKESLEAAKEKKKEDDDGEIDDGEIDDDDLEEGEVKDPSDRKVRPRPTCRFFMKGNCTWGMNCRFIHPGVNDKGNYSLITKADPFPPNGAPPLGPHPLMPANPWGGPVVDEILPPPPPEPPTESAWERGLRHAKEVLKKATIRKEQEPDFEEKRFTVTIGEDEREFDKENEVFRDWNSRIPRDVRDTVLEPYADPYYDYEIERFWRGGQYENFRVQYTETEPYHNYRERERERERENRQRERERERERDRERERRQRERERERERERDKERQRRKEEWERERAKRDEKDRQHRDRDREKEREKEKGKPKPRSPQPPSRQAEPPKKEAATTGPQVKRADEWKDPWRRSKSPKKKLGVSVSPSRARRRRKTSASSASASNSSRSSSRSSSYSGSGSSRSRSRSSSYSSYSSRSSRHSSFSGSRSRSRSFSSSPSPSPTPSPHRPSIRTKGEPAPPPGKAGEKSVKKPAPPPAPPQATKTTAPVPEPTKPGDPREARRKERPARTPPRRRTLSGSGSGSGSSYSGSSSRSRSLSVSSVSSVSSATSSSSSAHSVDSEDMYADLASPVSSASSRSPAPAQTRKEKGKSKKEDGVKEEKRKRDSSTQPPKSAKPPAGGKSSQQPSTPQQAPPGQPQQGTFVAHKEIKLTLLNKAADKGSRKRYEPSDKDRQSPPPAKRPNTSPDRGSRDRKSGGRLGSPKPERQRGQNSKAPAAPADRKRQLSPQSKSSSKVTSVPGKASDPGAASTKSGKASTLSRREELLKQLKAVEDAIARKRAKIPGKA
Q: B4 was tested. Which binding [1] did it give?
A: Its binding is “binds”.

Q: What about the binding [4] of the same molecule?
A: Its binding is “binds”.

Results are given in words; binding and its absence hold for the method and conditions named. Binding seen in cells or lysates may run through a third protein. Here binding means that the protein was enriched with, or labelled near, the bait; the list need not be complete. For some of these results: A no says only that the protein was not detected with the bait. For some of these results: Where a sequence is shown, tags or fusion partners need not be part of it.
